{"source": "PubChem BioAssay AID743121 (NCATS, 2013)", "test": "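Knock-downs that sensitise breast cancer cells to camptothecin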 (primary screen)", "cells": "MDA-MB-231 cells, a human breast cancer line", "knock-down reagent": "single siRNA against human genes, 20 nM siRNA (0.8 pmol per well)", "timing": "120 h (drug added 48 h after transfection, read 72 h later)", "conditions": "camptothecin 20 nM (about EC30) for 72 h; vehicle 0.1% DMSO in parallel plates", "measured": "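CellTiter-Glo ATP signal, scaled to control siRNA as percent viability; sensitisation given as log2 of untreated divided by camptothecin-treated viability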", "reading the numbers": "log2 vehicle/camptothecin viability: higher = stronger sensitisation to camptothecin; viability with camptothecin: higher = more viable cells", "units": "viability with camptothecin in % of control", "active means": "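Active genes have an RSA gene-level p-value below 0.001, computed from the ratios of their separate siRNAs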", "note": "This is an unselected part of about 26,000 reagents. In the full data, 167 (0.63%) got an active call. 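Calls are per gene from RSA p-values that are not deposited; an individual active-marked siRNA can sensitise only weakly.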 Unmarked entries are inactive. The numbers tell different reagents against one gene apart. Further read-outs or replicates are left out here. No sequences are given here."}
{"target gene": "SERPINB13 (serpin family B member 13)", "reagent": 1, "log2 vehicle/camptothecin viability": -0.0155, "viability with camptothecin": 99.4}
{"target gene": "SERPINB13 (serpin family B member 13)", "reagent": 2, "log2 vehicle/camptothecin viability": -0.224, "viability with camptothecin": 66.2}
{"target gene": "SERPINB13 (serpin family B member 13)", "reagent": 3, "log2 vehicle/camptothecin viability": 0.347, "viability with camptothecin": 24.7}
{"target gene": "SERPINB13 (serpin family B member 13)", "reagent": 4, "log2 vehicle/camptothecin viability": -0.21, "viability with camptothecin": 108}
{"target gene": "ULK1 (unc-51 like autophagy activating kinase 1)", "reagent": 1, "log2 vehicle/camptothecin viability": -1.09, "viability with camptothecin": 81.9}
{"target gene": "ULK1 (unc-51 like autophagy activating kinase 1)", "reagent": 2, "log2 vehicle/camptothecin viability": -0.399, "viability with camptothecin": 92.1}
{"target gene": "ULK1 (unc-51 like autophagy activating kinase 1)", "reagent": 3, "log2 vehicle/camptothecin viability": -0.218, "viability with camptothecin": 61.8}
{"target gene": "ULK1 (unc-51 like autophagy activating kinase 1)", "reagent": 4, "log2 vehicle/camptothecin viability": -0.559, "viability with camptothecin": 81.3}
{"target gene": "TMPRSS4 (transmembrane serine protease 4)", "reagent": 1, "log2 vehicle/camptothecin viability": 0.0972, "viability with camptothecin": 37.6}
{"target gene": "TMPRSS4 (transmembrane serine protease 4)", "reagent": 2, "log2 vehicle/camptothecin viability": 0.425, "viability with camptothecin": 57}
{"target gene": "TMPRSS4 (transmembrane serine protease 4)", "reagent": 3, "log2 vehicle/camptothecin viability": -0.375, "viability with camptothecin": 49.8}
{"target gene": "TMPRSS4 (transmembrane serine protease 4)", "reagent": 4, "log2 vehicle/camptothecin viability": -0.0548, "viability with camptothecin": 51.5}
{"target gene": "ING3 (inhibitor of growth family member 3)", "reagent": 1, "log2 vehicle/camptothecin viability": -0.325, "viability with camptothecin": 116}
{"target gene": "ING3 (inhibitor of growth family member 3)", "reagent": 2, "log2 vehicle/camptothecin viability": -0.34, "viability with camptothecin": 28.3}
{"target gene": "ING3 (inhibitor of growth family member 3)", "reagent": 3, "log2 vehicle/camptothecin viability": -0.401, "viability with camptothecin": 51.3}
{"target gene": "ING3 (inhibitor of growth family member 3)", "reagent": 4, "log2 vehicle/camptothecin viability": -0.427, "viability with camptothecin": 33.3}

A portion from the list above, as a working copy:
{"target gene": "SERPINB13 (serpin family B member 13)", "reagent": 2, "log2 vehicle/camptothecin viability": -0.224, "viability with camptothecin": 66.2}
{"target gene": "SERPINB13 (serpin family B member 13)", "reagent": 3, "log2 vehicle/camptothecin viability": 0.347, "viability with camptothecin": 24.7}
